Article doi:10.64898/2025.12.05.692677

The substances below were run against KOG1-FLAG (Neurospora crassa) (UniProt Q7SI31) (assay: affinity purification with mass spectrometry).

Substance | binding
Serine/Threonine protein kinase TOR (NCU05608) (from UniProt Q7S6V7) (enzyme) | binds
TCO89 (NCU04795) (from UniProt Q7S6P0) | binds
LST8 (NCU04281) (from UniProt Q1K788) | binds

These are yes or no findings as the source states them, for the method shown. In cells and extracts the contact can be indirect. Here binding means that the protein was enriched with, or labelled near, the bait; the list need not be complete.
